Values quoted from earlier work as cited in patent US12263066B2, “Apparatuses, systems and methods for perforating and aspirating inner ear” (priority 2018, dated 2025).
At least one structure is not confirmed: it was looked up by name or label, or the drawing left a doubt.

Conditions: cited from earlier work

CCN(CC)c1ccc2c(-c3ccccc3C(=O)O)c3ccc(=[N+](CC)CC)cc-3oc2c1.[Cl-] [RhoB, Rhodamine B]
log Pow: 1.95
